Experimental data taken from patent US20230382910A1, “HETEROARYL COMPOUNDS FOR THE TREATMENT OF PAIN” (VERTEX PHARMACEUTICALS INCORPORATED, priority 2022, published 2023).
Some of these results come from one statement about several compounds together.

Chains of the proteins cited; added tags and fusions are not shown. Residues count along the entry.
UniProt Q9Y5Y9, 660-890 limits assumed: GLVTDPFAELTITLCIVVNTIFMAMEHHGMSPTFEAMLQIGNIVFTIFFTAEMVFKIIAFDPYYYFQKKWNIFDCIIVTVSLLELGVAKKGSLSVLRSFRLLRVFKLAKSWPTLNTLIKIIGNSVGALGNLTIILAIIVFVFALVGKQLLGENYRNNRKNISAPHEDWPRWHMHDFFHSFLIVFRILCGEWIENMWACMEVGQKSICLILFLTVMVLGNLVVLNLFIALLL
UniProt Q9Y5Y9, 1148-1722 limits assumed: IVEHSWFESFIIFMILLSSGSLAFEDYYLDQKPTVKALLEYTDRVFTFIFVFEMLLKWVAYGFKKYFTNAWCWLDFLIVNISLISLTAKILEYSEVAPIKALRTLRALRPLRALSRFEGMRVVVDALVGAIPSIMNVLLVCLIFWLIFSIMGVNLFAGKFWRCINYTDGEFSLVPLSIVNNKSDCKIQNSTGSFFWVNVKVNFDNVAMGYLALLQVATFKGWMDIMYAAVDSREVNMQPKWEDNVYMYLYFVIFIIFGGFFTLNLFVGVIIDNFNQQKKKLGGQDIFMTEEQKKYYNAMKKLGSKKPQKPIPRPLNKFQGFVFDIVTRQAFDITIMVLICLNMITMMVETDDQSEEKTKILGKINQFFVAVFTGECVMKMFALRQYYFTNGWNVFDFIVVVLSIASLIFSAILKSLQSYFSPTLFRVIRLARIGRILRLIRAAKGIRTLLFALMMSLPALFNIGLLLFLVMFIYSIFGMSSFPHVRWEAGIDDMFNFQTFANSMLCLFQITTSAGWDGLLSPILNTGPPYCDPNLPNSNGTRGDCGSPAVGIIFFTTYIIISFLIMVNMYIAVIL
UniProt Q9Y5Y9, 126-399 limits assumed: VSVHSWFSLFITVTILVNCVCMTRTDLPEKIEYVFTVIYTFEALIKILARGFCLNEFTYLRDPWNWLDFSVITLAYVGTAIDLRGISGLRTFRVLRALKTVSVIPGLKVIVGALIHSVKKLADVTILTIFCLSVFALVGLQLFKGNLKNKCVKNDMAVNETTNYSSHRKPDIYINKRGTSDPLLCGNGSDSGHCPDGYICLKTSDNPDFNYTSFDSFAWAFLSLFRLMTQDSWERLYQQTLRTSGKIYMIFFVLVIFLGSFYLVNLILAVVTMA

Target: human NaV 1.8 (Homo sapiens, UniProt Q9Y5Y9)
Assay: E-VIPR Assay Detecting and Measuring NaV Inhibition Properties
Assay type: cell-based
Conditions: HEK cells expressing a truncated form of human NaV 1.8; electrical stimulation, membrane potential FRET dyes; read-out: measured IC50 value in the E-VIPR Assay

SMILES | IC50
Cc1cc(C2CC3CCC2C3)c(Cl)cc1-c1cc(=O)c2c(C(N)=O)nccc2[nH]1 (stereo not drawn) [Compound 265, 2-(5-chloro-2-methyl-4-norbornan-2-yl-phenyl)-4-oxo-1H-1,6-naphthyridine-5-carboxamide] | < 500 nM
Cc1cc(C(C)(C)C(F)(F)F)c(Cl)c(F)c1-c1cc(=O)c2c(C(N)=O)nccc2[nH]1 [Compound 266, 2-[3-chloro-2-fluoro-6-methyl-4-(2,2,2-trifluoro-1,1-dimethyl-ethyl)phenyl]-4-oxo-1H-1,6-naphthyridine-5-carboxamide] | < 500 nM
Cc1cc(C23CCC(CC2)CC3)c(Cl)cc1-c1cc(=O)c2c(C(N)=O)nccc2[nH]1 [Compound 267, 2-[4-(1-bicyclo[2.2.2]octanyl)-5-chloro-2-methyl-phenyl]-4-oxo-1H-1,6-naphthyridine-5-carboxamide] | < 500 nM
Cc1cc(C(C)(C)C(F)F)c(Cl)cc1-c1cc(=O)c2c(C(N)=O)nccc2[nH]1 [Compound 268, 2-[5-chloro-4-(2,2-difluoro-1,1-dimethyl-ethyl)-2-methyl-phenyl]-4-oxo-1H-1,6-naphthyridine-5-carboxamide] | < 500 nM
Cc1cc(OC(F)(F)F)c(Cl)cc1-c1cc(=O)c2c(C(N)=O)nccc2[nH]1 [Compound 269, 2-[5-chloro-2-methyl-4-(trifluoromethoxy)phenyl]-4-oxo-1H-1,6-naphthyridine-5-carboxamide] | < 500 nM
Cc1cc(C2(C(F)(F)F)CCCC2)c(Cl)cc1-c1cc(=O)c2c(C(N)=O)nccc2[nH]1 [Compound 270, 2-[5-chloro-2-methyl-4-[1-(trifluoromethyl)cyclopentyl]phenyl]-4-oxo-1H-1,6-naphthyridine-5-carboxamide] | < 500 nM
Cc1cc(C2CC3CC3C2)c(Cl)cc1-c1cc(=O)c2c(C(N)=O)nccc2[nH]1 (stereo not drawn) [Compound 271, 2-[4-(3-bicyclo[3.1.0]hexanyl)-5-chloro-2-methyl-phenyl]-4-oxo-1H-1,6-naphthyridine-5-carboxamide] | < 500 nM
Cc1cc([Si](C)(C)C)c(Cl)cc1-c1cc(=O)c2c(C(N)=O)nccc2[nH]1 [Compound 272, 2-(5-chloro-2-methyl-4-trimethylsilyl-phenyl)-4-oxo-1H-1,6-naphthyridine-5-carboxamide] | < 500 nM
Cc1nc(C23CCC(CC2)CC3)c(Cl)cc1-c1cc(=O)c2c(C(N)=O)nccc2[nH]1 [Compound 274, 2-[6-(1-bicyclo[2.2.2]octanyl)-5-chloro-2-methyl-3-pyridyl]-4-oxo-1H-1,6-naphthyridine-5-carboxamide] | < 500 nM
Cc1nc(C2C3(CC3)C23CC3)c(Cl)cc1-c1cc(=O)c2c(C(N)=O)nccc2[nH]1 [Compound 275, 2-(5-chloro-6-dispiro[2.0.24.13]heptan-7-yl-2-methyl-3-pyridyl)-4-oxo-1H-1,6-naphthyridine-5-carboxamide] | < 500 nM
Cc1nc(C23CC(C2)C3)c(Cl)cc1-c1cc(=O)c2c(C(N)=O)nccc2[nH]1 [Compound 276, 2-[6-(1-bicyclo[1.1.1]pentanyl)-5-chloro-2-methyl-3-pyridyl]-4-oxo-1H-1,6-naphthyridine-5-carboxamide] | < 500 nM
Cc1nc(C23CCC(C2)C3)c(Cl)cc1-c1cc(=O)c2c(C(N)=O)nccc2[nH]1 [Compound 277, 2-[6-(1-bicyclo[2.1.1]hexanyl)-5-chloro-2-methyl-3-pyridyl]-4-oxo-1H-1,6-naphthyridine-5-carboxamide] | < 500 nM
Cc1nc(C2(C)CC(F)(F)C2)c(Cl)cc1-c1cc(=O)c2c(C(N)=O)nccc2[nH]1 [Compound 278, 2-[5-chloro-6-(3,3-difluoro-1-methyl-cyclobutyl)-2-methyl-3-pyridyl]-4-oxo-1H-1,6-naphthyridine-5-carboxamide] | < 500 nM
Cc1nc(C2(C)CCC(F)(F)C2)c(Cl)cc1-c1cc(=O)c2c(C(N)=O)nccc2[nH]1 (stereo not drawn) [Compound 279, 2-[5-chloro-6-(3,3-difluoro-1-methyl-cyclopentyl)-2-methyl-3-pyridyl]-4-oxo-1H-1,6-naphthyridine-5-carboxamide] | < 500 nM
Cc1nc(C2CC3(CCC3)C2)c(Cl)cc1-c1cc(=O)c2c(C(N)=O)nccc2[nH]1 [Compound 280, 2-(5-chloro-2-methyl-6-spiro[3.3]heptan-2-yl-3-pyridyl)-4-oxo-1H-1,6-naphthyridine-5-carboxamide] | < 500 nM
Cc1nc(C(C)(C)C(F)(F)F)c(Cl)cc1-c1cc(=O)c2c(C(N)=O)nccc2[nH]1 [Compound 281, 2-[5-chloro-2-methyl-6-(2,2,2-trifluoro-1,1-dimethyl-ethyl)-3-pyridyl]-4-oxo-1H-1,6-naphthyridine-5-carboxamide] | < 500 nM
Cc1nc(C2(C)CCC2)c(Cl)cc1-c1cc(=O)c2c(C(N)=O)nccc2[nH]1 [Compound 282, 2-[5-chloro-2-methyl-6-(1-methylcyclobutyl)-3-pyridyl]-4-oxo-1H-1,6-naphthyridine-5-carboxamide] | < 500 nM
Cc1nc(C23CC(C)(C2)C3)c(Cl)cc1-c1cc(=O)c2c(C(N)=O)nccc2[nH]1 [Compound 283, 2-[5-chloro-2-methyl-6-(3-methyl-1-bicyclo[1.1.1]pentanyl)-3-pyridyl]-4-oxo-1H-1,6-naphthyridine-5-carboxamide] | < 500 nM

SMILES | IC50
Cc1nc(C23CCC(CC2)C3)c(Cl)cc1-c1cc(=O)c2c(C(N)=O)nccc2[nH]1 [Compound 284, 2-(5-chloro-2-methyl-6-norbornan-1-yl-3-pyridyl)-4-oxo-1H-1,6-naphthyridine-5-carboxamide] | < 500 nM
Cc1nc(C2(C)CCCC2)c(Cl)cc1-c1cc(=O)c2c(C(N)=O)nccc2[nH]1 [Compound 285, 2-[5-chloro-2-methyl-6-(1-methylcyclopentyl)-3-pyridyl]-4-oxo-1H-1,6-naphthyridine-5-carboxamide] | < 500 nM
Cc1nc(N2CCCC2(C)C)c(Cl)cc1-c1cc(=O)c2c(C(N)=O)nccc2[nH]1 [Compound 287, 2-[5-chloro-6-(2,2-dimethylpyrrolidin-1-yl)-2-methyl-3-pyridyl]-4-oxo-1H-1,6-naphthyridine-5-carboxamide] | < 500 nM
Cc1c(-c2cc(=O)c3c(C(N)=O)nccc3[nH]2)cc(F)c(C(C)(C)C)c1F [Compound 288, 2-(4-tert-butyl-3,5-difluoro-2-methyl-phenyl)-4-oxo-1H-1,6-naphthyridine-5-carboxamide] | < 500 nM
Cc1c(-c2cc(=O)c3c(C(N)=O)nccc3[nH]2)cc(Cl)c(C(C)(C)C)c1F [Compound 289, 2-(4-tert-butyl-5-chloro-3-fluoro-2-methyl-phenyl)-4-oxo-1H-1,6-naphthyridine-5-carboxamide] | < 500 nM
Cc1cc(C(C)(C)C)c(Cl)c(F)c1-c1cc(=O)c2c(C(N)=O)nccc2[nH]1 [Compound 290, 2-(4-tert-butyl-3-chloro-2-fluoro-6-methyl-phenyl)-4-oxo-1H-1,6-naphthyridine-5-carboxamide] | < 500 nM
Cc1cc(C(C)(C)C)c(F)cc1-c1cc(=O)c2c(C(N)=O)nccc2[nH]1 [Compound 291, 2-(4-tert-butyl-5-fluoro-2-methyl-phenyl)-4-oxo-1H-1,6-naphthyridine-5-carboxamide] | < 500 nM
Cc1cc(C(C)(C)C)c(F)c(F)c1-c1cc(=O)c2c(C(N)=O)nccc2[nH]1 [Compound 292, 2-(4-tert-butyl-2,3-difluoro-6-methyl-phenyl)-4-oxo-1H-1,6-naphthyridine-5-carboxamide] | < 500 nM
COC(=O)c1cc(C(C)(C)C)c(Cl)cc1-c1cc(=O)c2c(C(N)=O)nccc2[nH]1 [Compound 293, methyl 5-tert-butyl-2-(5-carbamoyl-4-oxo-1H-1,6-naphthyridin-2-yl)-4-chloro-benzoate] | < 500 nM
CC(C)(C)c1cc(CO)c(-c2cc(=O)c3c(C(N)=O)nccc3[nH]2)cc1Cl [Compound 294, 2-[4-tert-butyl-5-chloro-2-(hydroxymethyl)phenyl]-4-oxo-1H-1,6-naphthyridine-5-carboxamide] | < 500 nM
Cc1cc(C(C)(C)CO)c(C(F)(F)F)cc1-c1cc(=O)c2c(C(N)=O)nccc2[nH]1 [Compound 295, 2-[4-(2-hydroxy-1,1-dimethyl-ethyl)-2-methyl-5-(trifluoromethyl)phenyl]-4-oxo-1H-1,6-naphthyridine-5-carboxamide] | ≥ 5000 nM
Cc1nc(C23CC(C2)C3)c(Cl)cc1-c1cc(=O)c2c(C#N)nccc2[nH]1 [Compound 298, 2-[6-(1-bicyclo[1.1.1]pentanyl)-5-chloro-2-methyl-3-pyridyl]-4-oxo-1H-1,6-naphthyridine-5-carbonitrile] | < 500 nM
Cc1nc(C2CC3(CCC3)C2)c(Cl)cc1-c1cc(=O)c2c(C#N)nccc2[nH]1 [Compound 299, 2-(5-chloro-2-methyl-6-spiro[3.3]heptan-2-yl-3-pyridyl)-4-oxo-1H-1,6-naphthyridine-5-carbonitrile] | < 500 nM
Cc1ncc(Cl)cc1-c1cc(=O)c2c(C(N)=O)nccc2[nH]1 [Compound 300, 2-(5-chloro-2-methyl-3-pyridyl)-4-oxo-1H-1,6-naphthyridine-5-carboxamide] | ≥ 5000 nM
Cc1nc(C23CCC(CC2)C3)c(Cl)cc1-c1cc(=O)c2c(C#N)nccc2[nH]1 [Compound 301, 2-(5-chloro-2-methyl-6-norbornan-1-yl-3-pyridyl)-4-oxo-1H-1,6-naphthyridine-5-carbonitrile] | < 500 nM
Cc1nc(C2CC3CCC2C3)c(Cl)cc1-c1cc(=O)c2c(C(N)=O)nccc2[nH]1 (stereo not drawn) [Compound 302, 2-(5-chloro-2-methyl-6-norbornan-2-yl-3-pyridyl)-4-oxo-1H-1,6-naphthyridine-5-carboxamide] | < 500 nM
Cc1cc(C(C)(C)C)c(Cl)cc1-c1cc(=O)c2c(C(N)=O)nccc2[nH]1 [Compound 303, 2-(4-tert-butyl-5-chloro-2-methyl-phenyl)-4-oxo-1H-1,6-naphthyridine-5-carboxamide] | < 500 nM
COCCN(C)c1ccc2[nH]c(-c3ccc(C(C)(C)C)cc3C)cc(=O)c2n1 [Compound 305, 2-(4-tert-butyl-2-methyl-phenyl)-6-[2-methoxyethyl(methyl)amino]-1H-1,5-naphthyridin-4-one] | ≥ 5000 nM
